# Data from article PMC5342562.
# Chains of the proteins cited; added tags and fusions are not shown.
# UniProt P08515, whole entry: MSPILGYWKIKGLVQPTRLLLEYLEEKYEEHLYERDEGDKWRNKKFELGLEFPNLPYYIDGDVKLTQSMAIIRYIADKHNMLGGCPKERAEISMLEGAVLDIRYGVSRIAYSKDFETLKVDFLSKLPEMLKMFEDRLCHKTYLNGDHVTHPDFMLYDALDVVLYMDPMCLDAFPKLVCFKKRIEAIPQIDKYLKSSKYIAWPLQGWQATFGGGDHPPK
# The exact form of at least one protein or probe is not confirmed. For some of these results: No signal at the amounts used counts as a negative. For some of these results: Results from cells or extracts need not show a direct contact. For some of these results: Where a protein sequence is shown, tags need not be part of it.
# Assays:
# [1] = target: T1, GST-ZNF32 (human) (UniProt P17041); assay: competition with a labelled probe; conditions: 200-fold excess unlabeled probe attenuates the N1 complex; LightShift Chemiluminescent EMSA kit reaction buffer (composition and pH not given), 2 nM biotin probe, 20 min at room temperature; 5% native gel in 0.5x TBE; recombinant protein; residues 1-273; protein details: GST (N-terminal, pGEX-5X-3)
# T1 sequence (looked up): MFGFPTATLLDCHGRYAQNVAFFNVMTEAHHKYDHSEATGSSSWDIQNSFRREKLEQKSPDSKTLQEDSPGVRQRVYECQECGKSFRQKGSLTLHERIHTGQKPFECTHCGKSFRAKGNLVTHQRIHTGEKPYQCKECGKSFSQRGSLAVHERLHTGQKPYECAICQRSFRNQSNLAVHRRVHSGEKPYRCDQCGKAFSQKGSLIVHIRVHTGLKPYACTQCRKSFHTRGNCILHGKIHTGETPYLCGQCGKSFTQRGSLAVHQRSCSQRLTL
# [2] = target: T2, ZNF32 overexpressed (LV6-ZNF32) in BE(2)-C nuclear extract (UniProt P17041); assay: EMSA; conditions: 10 ug nuclear extract, complex increased by ZNF32 overexpression, decreased in ZNF32-silenced (lv-ZNF32) cells; LightShift Chemiluminescent EMSA kit reaction buffer (composition and pH not given), 2 nM biotin probe, 20 min at room temperature; 5% native gel in 0.5x TBE; protein in an extract; label: 5'-biotin
# T2 sequence (looked up, limits assumed): T1 sequence (looked up)
# [3] = target: T1, GST-ZNF32 (human); assay: EMSA; conditions: 2 ug GST-ZNF32, 2 nM probe; LightShift Chemiluminescent EMSA kit reaction buffer (composition and pH not given), 2 nM biotin probe, 20 min at room temperature; 5% native gel in 0.5x TBE; recombinant protein; residues 1-273; protein details: GST (N-terminal, pGEX-5X-3); label: 5'-biotin
# [4] = target: GST (control) (UniProt P08515); assay: EMSA; conditions: LightShift Chemiluminescent EMSA kit reaction buffer (composition and pH not given), 2 nM biotin probe, 20 min at room temperature; 5% native gel in 0.5x TBE; recombinant protein; protein details: GST; label: 5'-biotin
Sequence,binding result [1],binding result [2],binding result [3],binding result [4]
TTTGTAGTCAAGTGCATTTTAGCCACAAAGAT (double strand) [SOX2 promoter competitor (unlabeled probe)],binds,–,–,–
TTTGTAGTCAAGTGCATTTTAGCCACAAAGAT (double strand) [SOX2 promoter probe],–,binds,binds,no binding
